Record: PubChem BioAssay AID1224828 (NIAID, 2016)
Aim: 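Regulators linking TLR4 signalling to p65 nuclear translocation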 (primary screen). Cell system: mouse RAW264.7 G9 macrophage reporter cells (GFP-p65, Tnf promoter-mCherry). Knock-down reagent: siRNA pool against mouse genes, 100 nM. Timing: 2 days siRNA transfection, then 40 min LPS before fixation. Challenge: LPS (Salmonella minnesota R595) at 10 ng/ml. Detection: 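Microscopy ratio of nuclear to perinuclear-ring GFP-p65 signal, scaled to the plate median; gene score is the average of two replicate robust z-scores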. Reading the numbers: p65 translocation robust z-score: higher = more nuclear NF-kappaB p65 after LPS than the plate median; nuclear/cytoplasmic p65 ratio: higher = more nuclear NF-kappaB p65. Call rule: 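Called active when z exceeds 3.3 or falls under -1.56 (median of Tlr4 controls), giving activity score of at least 50; no calls for control wells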. Calls: active = hit (p65 shift raised or lowered); inactive = no clear change.
The whole screen tested about 17,000 reagents; this is a part drawn at random. 762 of them (4.5%) were called active. 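Active calls include both raised and lowered p65 entry, mostly lowered; wells with fewer than 50 cells lack a z-score.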 Raw values vary from plate to plate and are shown uncorrected. Unmarked entries are inactive. Reagents against one gene are numbered here. No sequences are given here.

| Gene | pool no. | p65 translocation robust z-score | nuclear/cytoplasmic p65 ratio, rep 1 | nuclear/cytoplasmic p65 ratio, rep 2 | low cell count flag |
| --- | --- | --- | --- | --- | --- |
| Pebp1 | 1 | -0.28 | 1.51 | 1.28 | enough cells to score |
| Glul | 1 | – | 1.54 | 1.36 | fewer than 50 cells per well; well left out of scoring |
| Msmb | 1 | 0.3 | 1.76 | 1.7 | enough cells to score |
| Pnp | 1 | 0.23 | 1.56 | 1.41 | enough cells to score |
| Cdk12 | 1 | 1.72 | 2.09 | 1.5 | enough cells to score |
| Xlr5c | 1 | -0.85 | 1.24 | 1.21 | enough cells to score |
| Enpp5 | 1 | 2.57 | 2.02 | 1.51 | enough cells to score |
| Cdc42se1 | 1 | 0.59 | 1.58 | 1.69 | enough cells to score |
| Lemd2 | 1 | 1.36 | 1.78 | 2.07 | enough cells to score |
| Smim5 | 1 | – | 1.18 | 1.21 | fewer than 50 cells per well; well left out of scoring |
| Ophn1 | 1 | 1.32 | 1.57 | 1.64 | enough cells to score |
| Ptprf | 1 | 2.04 | 1.81 | 1.8 | enough cells to score |
| Sobp | 1 | – | 1.17 | 1.4 | fewer than 50 cells per well; well left out of scoring |
| Hyou1 | 1 | -0.22 | 1.42 | 1.34 | enough cells to score |
| Htr1f | 1 | 0.71 | 1.6 | 1.88 | enough cells to score |
| Alkbh2 | 1 | -0.28 | 1.63 | 1.52 | enough cells to score |
| Get4 | 1 | -0.61 | 1.4 | 1.42 | enough cells to score |
| Pcdhb16 | 1 | 0.43 | 1.58 | 1.23 | enough cells to score |
| Hoxb13 | 1 | 0.66 | 1.43 | 1.54 | enough cells to score |
| Cys1 | 1 | 0.25 | 1.6 | 1.84 | enough cells to score |
| Impact | 1 | -0.68 | 1.58 | 1.35 | enough cells to score |
| Rhcg | 1 | – | 1.27 | 1.14 | fewer than 50 cells per well; well left out of scoring |
| Plk4 | 1 | 0.23 | 1.72 | 1.62 | enough cells to score |
| Tmem71 | 1 | -2.38 (active) | 1.15 | 1.42 | enough cells to score |
| Saxo4 | 1 | – | 1.47 | 1.21 | fewer than 50 cells per well; well left out of scoring |
| Arl13b | 1 | 0.43 | 1.5 | 1.57 | enough cells to score |
| Hoxc5 | 1 | 0.07 | 1.43 | 1.4 | enough cells to score |
| Rspo4 | 1 | -0.16 | 1.33 | 1.54 | enough cells to score |
| Chaf1b | 1 | 1.1 | 1.65 | 1.75 | enough cells to score |
| Paqr6 | 1 | 0.87 | 1.59 | 1.63 | enough cells to score |
| Med11 | 1 | -0.74 | 1.4 | 1.38 | enough cells to score |
| Rasgrf2 | 1 | 0.38 | 1.74 | 1.43 | enough cells to score |
| Ccna1 | 1 | -1.46 | 1.17 | 1.19 | enough cells to score |
| Eif3b | 1 | 0.95 | 1.65 | 1.44 | enough cells to score |
| Lcor | 1 | -0.96 | 1.57 | 1.5 | enough cells to score |
| Atp5f1a | 1 | -0.04 | 1.51 | 1.6 | enough cells to score |
| Chchd5 | 1 | 1.13 | 1.66 | 1.57 | enough cells to score |
| Sncb | 1 | -0.67 | 1.33 | 0.993 | enough cells to score |
| Trim2 | 1 | 1.1 | 1.6 | 1.23 | enough cells to score |
| Fst | 1 | 0.11 | 1.42 | 1.41 | enough cells to score |
| Mboat1 | 1 | -0.19 | 1.65 | 1.54 | enough cells to score |
| Or2a25 | 1 | -0.42 | 1.34 | 1.26 | enough cells to score |
| Cideb | 1 | -0.25 | 1.41 | 1.35 | enough cells to score |
| Tpcn2 | 1 | -0.58 | 1.49 | 1.39 | enough cells to score |
| Or13c7 | 1 | 1.56 | 1.9 | 1.58 | enough cells to score |

Continued (2 carried over from the part before).
| Gene | pool no. | p65 translocation robust z-score | nuclear/cytoplasmic p65 ratio, rep 1 | nuclear/cytoplasmic p65 ratio, rep 2 | low cell count flag |
| --- | --- | --- | --- | --- | --- |
| Tpcn2 | 1 | -0.58 | 1.49 | 1.39 | enough cells to score |
| Or13c7 | 1 | 1.56 | 1.9 | 1.58 | enough cells to score |
| Dut | 1 | -0.21 | 1.5 | 1.33 | enough cells to score |
| Mospd3 | 1 | 0.4 | 1.86 | 1.65 | enough cells to score |
| Bcl7a | 1 | -0.5 | 1.47 | 1.61 | enough cells to score |
| Tgfbr3 | 1 | -0.52 | 1.46 | 1.43 | enough cells to score |
| Ptgs1 | 1 | 1.26 | 1.59 | 1.65 | enough cells to score |
| Clec4d | 1 | -0.38 | 1.47 | 1.33 | enough cells to score |
| Bambi | 1 | -1.67 (active) | 1.32 | 1.57 | enough cells to score |
| Pakap | 1 | 0.54 | 1.71 | 1.69 | enough cells to score |
| Pakap | 2 | 1.9 | 1.7 | 1.45 | enough cells to score |
| Usf2 | 1 | -0.46 | 1.5 | 1.39 | enough cells to score |
| G6pdx | 1 | -0.08 | 1.35 | 1.43 | enough cells to score |
| Mycl | 1 | 0.08 | 1.81 | 1.48 | enough cells to score |
| Cdc25a | 1 | 0.11 | 1.61 | 1.39 | enough cells to score |
| Llph | 1 | 0.27 | 1.11 | 1.45 | enough cells to score |
| Zfp799 | 1 | -0.82 | 1.18 | 1.43 | enough cells to score |
| 9230109A22Rik | 1 | 1.63 | 1.57 | 1.85 | enough cells to score |
| Or11g7 | 1 | 0.44 | 1.34 | 1.32 | enough cells to score |
| Mtmr7 | 1 | 1.31 | 1.98 | 1.81 | enough cells to score |
| Fv1 | 1 | -0.63 | 1.57 | 1.32 | enough cells to score |
| Col25a1 | 1 | 0.5 | 1.59 | 1.93 | enough cells to score |
| Or51a6 | 1 | -0.46 | 1.44 | 1.22 | enough cells to score |
| Pepf | 1 | -1.42 | 1.23 | 1.09 | enough cells to score |
| Gart | 1 | 0.61 | 1.47 | 1.49 | enough cells to score |
| Cimap1c | 1 | 2.52 | 1.8 | 1.85 | enough cells to score |
| Krtcap2 | 1 | 2.73 | 1.9 | 1.83 | enough cells to score |
| Iqch | 1 | -0.34 | 1.74 | 1.34 | enough cells to score |
| Ache | 1 | 1.01 | 1.68 | 1.86 | enough cells to score |
| Tbx20 | 1 | – | 1.42 | 1.3 | fewer than 50 cells per well; well left out of scoring |
| Yaf2 | 1 | -1.12 | 1.42 | 1.29 | enough cells to score |
| Robo2 | 1 | -0.67 | 1.33 | 1.12 | enough cells to score |
